AC50 and cell number change data for 37 compounds are collected here from PubChem BioAssay AID2685 (National Center for Advancing Translational Sciences (NCATS), 2010).

The list shows a part of the results. Further columns of the screen follow, without active or inactive calls. The list favours compounds with an active or inconclusive main result. The note in brackets gives the kind of curve behind each potency; many fits are weak.

A short description of the assay: qHTS Assay for Lipid Storage Modulators in Drosophila S3 Cells.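 On cell number change: cells counted by Cell Tracker Red CMTPX staining in the red channel.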 The settings on record: BODIPY lipid droplet fluorescence, 18-24 h; for cell number change: measured here: cell count max response, cells fed with added oleic acid. The method in brief: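 Drosophila S3 cells got compounds at several concentrations plus oleic acid (400 uM solution). Laser-scanning cytometry with 488 nm excitation read lipid droplets at 500-530 nm and cells at 575-640 nm. Percent activity was relative to 20 uM Triacsin C.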

[1] abbreviates: measured here: lipid fluorescence (Fed channel) AC50, cells fed with added oleic acid.
The mark [2] stands for this setting: measured here: cell number channel AC50, cells fed with added oleic acid.

For the compound `CCC(=O)Nc1nc(C)c(-c2csc(Nc3cccc(O)c3)n2)s1`, the AC50 (usually the concentration at which the activity in the assay is half-maximal) under setting [1] is 29.1 µM [falling, single point].

With `COc1cccc(Nc2nc3ccccc3c(=O)[nH]2)c1`, the cell number change worked out at 11.3%. For the same compound, the AC50 under setting [2] is 0.82 µM [rising, full curve, poor fit]. Under setting [1], the AC50 was 0.116 µM [rising, full curve, poor fit]. For the compound `COC(=O)CSc1nc2sc3c(c2c(=O)n1-c1ccccc1)CCN(C)C3`, the cell number change is -13.9%.

Take `NC(=O)C1CCN(C(=O)C2CCN(S(=O)(=O)c3ccccc3)CC2)CC1`: the cell number change is -15.5%. Moreover, under setting [1], the AC50 was 0.291 µM [falling, full curve]. As to `COc1ccccc1NC(=O)CCN1C(=O)C2C3CCC(C3)C2C1=O` (configuration not stated), the cell number change is -30.5%. The AC50 under setting [2] is 16.4 µM [falling, single point]. Also, the concentration at half-maximal activity (AC50) under setting [1] is 29.1 µM [falling, single point].

As for `COCCn1c(=N)c(S(=O)(=O)c2ccc(F)cc2)cc2c(=O)n3ccccc3nc21`, the cell number change stood at 8.06%. For the same compound, the concentration at half-maximal activity (AC50) under setting [1] is 16.4 µM [falling, single point]. Take `O=C(NC(Nc1ncc(S(=O)(=O)c2ccc([N+](=O)[O-])cc2)s1)(C(F)(F)F)C(F)(F)F)c1ccc(Cl)cc1`: the cell number change is -49.2%. In addition, the AC50 under setting [2] was 16.4 µM [falling, partial curve]. The AC50 under setting [1] is 29.1 µM [falling, single point]. `Cc1cccc(-n2cc(CN3CCN(Cc4nccn4C)CC3)c(-c3cccc(F)c3)n2)c1`: the cell number change was -10%. In addition, the AC50 under setting [1] was 20.6 µM [falling, single point].

In the case of `O=S(=O)(NC1CCCCC1)c1ccc(F)c2ccccc12`, the cell number change was -52.5%. Under setting [2], the AC50 was 29.1 µM [falling, single point]. On to `Cc1ccc(NC(=O)CSC2=C(C#N)C(c3ccco3)C3=C(CCCC3=O)N2)cc1` (configuration not stated), for which the AC50 under setting [1] was 1.64 µM [falling, full curve, poor fit].

For `CCOc1ccc(Oc2c(/C=N/NC(=O)C3CC3)c(C)nn2-c2ccccc2)cc1`, the cell number change was -25.2%. Further, under setting [1], the AC50 is 25.9 µM [falling, partial curve, poor fit]. Take `COc1ccc(C(CNC(=O)c2ccc(OCc3c(C)noc3C)cc2)N2CCCC2)cc1` (configuration not stated): the cell number change was -2.07%. Also, the AC50 under setting [1] was 1.03 µM [rising, full curve]. For `O=C(c1ccc(N2CCOCC2)c([N+](=O)[O-])c1)N1CCN(S(=O)(=O)c2cccs2)CC1`, the cell number change is 15.7%. For the same compound, the AC50 under setting [1] was 29.1 µM [rising, single point].

For `COc1ccc(N(C(=O)Cn2nnc3ccccc32)C(C(=O)NCc2ccco2)c2cccnc2)cc1` (configuration not stated), the cell number change is -40%. For the same compound, the AC50 under setting [2] is 23.1 µM [falling, single point]. Also, under setting [1], the AC50 was 29.1 µM [falling, single point]. As for `O=C(/C=C/c1ccccc1Cl)Nc1cccc(S(=O)(=O)NC2=NCCCCC2)c1`, the cell number change turned out to be 8.6%. In addition, the AC50 under setting [1] is 2.91 µM [falling, full curve]. Take `CC1CC(C)CN(S(=O)(=O)N2CCCC(C(=O)NCc3ccccc3Cl)C2)C1` (configuration not stated): the cell number change came to 25.7%. Further, the AC50 under setting [1] is 20.6 µM [rising, single point]. With `Cc1csc2ncc(C(=O)NCCC(c3ccccc3)c3ccccc3)c(=O)n12`, the cell number change came out at 52.5%. Also, under setting [2], the AC50 was 0.92 µM [rising, full curve]. Further, the AC50 under setting [1] was 1.16 µM [rising, full curve]. Turning to `Cc1cc(F)ccc1S(=O)(=O)Nc1ccccc1C(=O)NCc1ccccn1`, the cell number change worked out at 86.4%. Turning to `CCCCN1C(=O)C(=O)N(CC(=O)N2N=C3/C(=C/c4ccco4)CCCC3C2c2ccco2)C1=O` (configuration not stated), the AC50 under setting [2] is 0.0731 µM [falling, full curve, poor fit].

As for `O=C(N/N=C/c1cccc(Br)c1)c1ccc(N2CCCC2=O)cc1`, the cell number change was 26.7%. On to `O=C(CSCc1ccc(Cl)cc1)Nc1ccc2c(c1)OCO2`, for which the cell number change stood at 19.5%. The half-maximal activity concentration (AC50) under setting [1] was 2.59 µM [rising, full curve]. On to `CC(=O)c1ccccc1OCC(O)CN1CCN(C(c2ccccc2)c2ccccc2)CC1` (configuration not stated), for which the cell number change is -59.7%. The concentration at half-maximal activity (AC50) under setting [2] is 16.4 µM [falling, single point]. In the case of `Cc1ccc2nc(NC(=O)COC(=O)CSc3nc(C)cc(C)n3)sc2c1`, the cell number change was 46.6%. Also, under setting [1], the concentration at half-maximal activity (AC50) was 23.1 µM [rising, single point]. As to `O=C(Nc1ccc(C(=O)NCc2ccc(F)cc2)cc1)C1=CSCCO1`, the cell number change amounted to 42.7%. In addition, the AC50 under setting [2] was 20.6 µM [rising, single point]. As for `CCc1nnc(NC(=O)c2cc(-c3ccccn3)nc3ccccc23)s1`, the AC50 under setting [1] is 2.06 µM [rising, partial curve]. As to `CCNc1nnc(SCC(=O)NC2CCCCCC2)s1`, the cell number change is 73.5%. In addition, under setting [2], the AC50 was 20.6 µM [rising, single point]. Turning to `Oc1ccc(/C=N/NC(=S)NC2CC3CCC2C3)cc1` (configuration not stated), the cell number change is -7.4%. Besides, the AC50 under setting [2] was 0.00461 µM [falling, full curve, poor fit]. Besides, under setting [1], the AC50 was 0.0058 µM [falling, full curve, poor fit].

With `CC[C@@]1(c2ccccc2)C(=O)N(C(=O)OC)N1C(=O)OC`, the cell number change was -6.59%. Besides, the AC50 under setting [1] is 6.51 µM [rising, single point].

With `Oc1ccc(-c2nc3ccccc3s2)c(O)c1`, the cell number change was found to be 17.4%. For `C/C(=N\NC(=S)Nc1cccc(C)c1)c1cccc(N)c1`, the cell number change was -0.963%. The AC50 under setting [1] is 0.58 µM [rising, full curve, poor fit]. As for `O=C1c2cccc([N+](=O)[O-])c2C(=O)N1C1CCCCC1`, the cell number change is -22.8%. The same measure, in the same setting: to `O=C(c1cnc2sccn2c1=O)N1CCc2ccccc2C1` belongs 14.5%.

With `COc1ccc(CNC(=O)COC(=O)CC2CC3CCC2C3)cc1OC` (configuration not stated), the cell number change stood at 11.5%. The AC50 under setting [2] was 0.116 µM [rising, full curve, poor fit]. Also, under setting [1], the AC50 is 29.1 µM [rising, single point]. For the compound `Cc1ccc(NC(=O)CCNS(=O)(=O)c2ccc3[nH]c(=O)oc3c2)cc1`, the cell number change is -10%. Moreover, under setting [1], the AC50 is 6.51 µM [falling, single point].

For the compound `c1ccc(-c2nnc(OCc3cccnc3)c3ccccc23)cc1`, the cell number change was -33.4%. For the same compound, the AC50 under setting [2] was 25.1 µM [falling, partial curve, poor fit]. Further, the half-maximal activity concentration (AC50) under setting [1] is 35.5 µM [falling, partial curve, poor fit]. For `CCc1cccc(C)c1NC(=S)N(Cc1cccnc1)Cc1ccco1`, the cell number change came to 6.26%. For the same compound, the half-maximal activity concentration (AC50) under setting [2] was 6.51 µM [rising, single point]. For the same compound, the AC50 under setting [1] is 6.51 µM [rising, single point]. Take `CN1CCN(c2ccc(NC(=O)CSc3nnnn3-c3ccccc3Cl)cc2)CC1`: the cell number change was -11.7%.
